Reference: PubChem BioAssay AID1259424 (University of Nebraska Medical Center, 2018)
This is a random part of about 14,000 reagents. 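Higher correlation or smaller distance means closer resemblance to KSR1 loss; control wells, including KSR1 knockdowns, recur on many plates.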 Further read-outs or replicates are left out here. Not given: the time to read-out.

Assay: 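Rank knockdowns across the genome by resemblance to the KSR1 depletion profile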 (primary screen)
Cells: human HCT116 colon cancer cells
Knock-down reagent: siRNA pool against human genes, 50 nM
Measured: 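Six signature mRNAs by branched-DNA multiplex assay, scaled to two housekeeping genes and non-targeting median, log2; matched to mean KSR1 knockdown profile by Pearson correlation and euclidean distance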
Reading the numbers: mean correlation with KSR1 profile: higher = expression change more like KSR1 knockdown; mean distance from KSR1 profile: higher = expression change less like KSR1 knockdown

Knock-down of TBC1D24 (GeneID 57465) came out at: mean correlation with KSR1 profile -0.799; mean distance from KSR1 profile 2.26. Depletion of SNAI2 (GeneID 6591) came out at: mean correlation with KSR1 profile 0.614; mean distance from KSR1 profile 1.33. Depletion of CPA1 (GeneID 1357) resulted in: mean correlation with KSR1 profile -0.658; mean distance from KSR1 profile 3.35. CFLAR (GeneID 8837) showed mean correlation with KSR1 profile -0.253; mean distance from KSR1 profile 3.13. Knock-down of SRMS (GeneID 6725) resulted in: mean correlation with KSR1 profile 0.579; mean distance from KSR1 profile 1.8. Against INTS1 (GeneID 26173) the deposit lists mean correlation with KSR1 profile -0.11; mean distance from KSR1 profile 4.73.

After knock-down of AANAT (GeneID 15), the record shows mean correlation with KSR1 profile 0.594; mean distance from KSR1 profile 2.24. Against DNAJC14 (GeneID 85406) the deposit lists mean correlation with KSR1 profile 0.0319; mean distance from KSR1 profile 2.1. Knock-down of TMEM132A (GeneID 54972) came out at: mean correlation with KSR1 profile -0.449; mean distance from KSR1 profile 3.48. CYP1A1 (GeneID 1543) gave mean correlation with KSR1 profile -0.691; mean distance from KSR1 profile 3.28. SORT1 (GeneID 6272) showed mean correlation with KSR1 profile 0.726; mean distance from KSR1 profile 1.39. FAM110A (GeneID 83541) showed mean correlation with KSR1 profile 0.478; mean distance from KSR1 profile 2.52.

For PSME3 (GeneID 10197), the values are mean correlation with KSR1 profile -0.0572; mean distance from KSR1 profile 2.39. GPR22 (GeneID 2845) showed mean correlation with KSR1 profile 0.00221; mean distance from KSR1 profile 2.53. Depletion of NUPR1 (GeneID 26471) came out at: mean correlation with KSR1 profile 0.778; mean distance from KSR1 profile 3.79. For GCC1 (GeneID 79571), the entry reads mean correlation with KSR1 profile 0.00825; mean distance from KSR1 profile 3.85.

Ordered by “mean correlation with KSR1 profile” (lowest first): 4 of the entries above
CYP1A1 (GeneID 1543) | mean correlation with KSR1 profile: -0.691; mean distance from KSR1 profile: 3.28
TMEM132A (GeneID 54972) | mean correlation with KSR1 profile: -0.449; mean distance from KSR1 profile: 3.48
DNAJC14 (GeneID 85406) | mean correlation with KSR1 profile: 0.0319; mean distance from KSR1 profile: 2.1
AANAT (GeneID 15) | mean correlation with KSR1 profile: 0.594; mean distance from KSR1 profile: 2.24

The listing continues:
NBEAL2 (GeneID 23218) showed mean correlation with KSR1 profile -0.508; mean distance from KSR1 profile 2.98. GSS (GeneID 2937) scored mean correlation with KSR1 profile -0.238; mean distance from KSR1 profile 3.08. Depletion of GATA3 (GeneID 2625) gave: mean correlation with KSR1 profile 0.175; mean distance from KSR1 profile 3.2. H4C3 (GeneID 8364) showed mean correlation with KSR1 profile -0.124; mean distance from KSR1 profile 3.4. With knock-down of RHD (GeneID 6007) the results were mean correlation with KSR1 profile -0.19; mean distance from KSR1 profile 2.77. COL5A1 (GeneID 1289) showed mean correlation with KSR1 profile -0.455; mean distance from KSR1 profile 1.49.

Knock-down of NDUFA13 (GeneID 51079) resulted in: mean correlation with KSR1 profile -0.213; mean distance from KSR1 profile 2.64. For CBX8 (GeneID 57332), the values are mean correlation with KSR1 profile 0.17; mean distance from KSR1 profile 2.25. Against RHBDL1 (GeneID 9028), the values are mean correlation with KSR1 profile -0.695; mean distance from KSR1 profile 1.19. CD300E (GeneID 342510) gave mean correlation with KSR1 profile -0.787; mean distance from KSR1 profile 1.93. After knock-down of CHPF (GeneID 79586) the results were mean correlation with KSR1 profile 0.428; mean distance from KSR1 profile 2.55. With knock-down of MEOX2 (GeneID 4223), the screen gave mean correlation with KSR1 profile 0.0489; mean distance from KSR1 profile 1.93.
